Assay results taken from PubChem BioAssay AID2685 (National Center for Advancing Translational Sciences (NCATS), 2010).
This is one part of the list. Further columns of the screen follow, without active or inactive calls. The list favours compounds with an active or inconclusive main result. Potencies come from curve fits of mixed quality, noted in brackets.

Experiment: qHTS Assay for Lipid Storage Modulators in Drosophila S3 Cells;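 on cell number change: cells counted by Cell Tracker Red CMTPX staining in the red channel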
Settings: BODIPY lipid droplet fluorescence, 18-24 h; for cell number change: measured here: cell count max response, cells fed with added oleic acid
Summary of the method: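 Laser-scanning cytometry quantifies lipid droplet accumulation (500–530 nm total intensity; droplet/cell object ratio) in oleic acid-fed (400 uM added) Drosophila S3 cells treated with a concentration series. 20 uM Triacsin C defined 100% inhibition.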

[1] = measured here: lipid fluorescence (Fed channel) AC50, cells fed with added oleic acid
[2] = measured here: cell number channel AC50, cells fed with added oleic acid

SMILES	cell number change [%]	AC50 [1]	AC50 [2]
Cc1nc(-c2ccc(Cl)cc2)sc1C1(C)CC(c2ccccc2F)=NO1 (centres undefined)	0.301	18.4 µM [rising, single point]	–
CCOC(=O)N1CCN(Cc2cn[nH]c2-c2cc3ccccc3o2)CC1	8.27	29.1 µM [rising, partial curve, poor fit]	–
Cc1nc2c([nH]c3ccc(Br)cc32)s1	–	–	2.59 µM [rising, partial curve]
CC1CCCC(C)N1/N=C/c1ccc([N+](=O)[O-])cc1 (centres undefined)	-41.1	2.59 µM [falling, full curve]	18.4 µM [falling, partial curve]
Oc1ccccc1CNCc1ccccc1	9.83	29.1 µM [rising, single point]	–
Cc1ccc(C)c(Sc2ccc(NC(=O)CCl)cc2)c1	-42.3	7.31 µM [falling, partial curve]	32.6 µM [falling, single point]
COc1ccc(Cl)cc1NC(=O)N1CCN(CCc2ccccc2)CC1	–	2.31 µM [rising, partial curve]	–
CCN(Cc1nc2ccccc2c(=O)[nH]1)Cc1nc2ccsc2c(=O)[nH]1	-37.3	–	–
COc1ccc(/C=N/NC(=O)CCC(=O)Nc2ccc(F)cc2)c(OC)c1	6.45	29.1 µM [rising, single point]	–
CCC(=O)Nc1nc2ccccc2n1Cc1ccc(Cl)cc1	-23.3	3.66 µM [falling, single point]	–
OCCNCCCCOc1ccccc1F	-24.9	0.58 µM [falling, single point]	–
Cn1cc(S(=O)(=O)Nc2cccc(F)c2)c(=O)n(C)c1=O	-18.8	6.51 µM [falling, single point]	–
CCCn1c(N)c(CC)c(=O)[nH]c1=O	-16	32.6 µM [falling, partial curve, poor fit]	–
CCCN1CCN(C(=O)c2cc(COc3ccc(F)c(F)c3)on2)CC1	–	4.11 µM [falling, single point]	–
COc1cccc(OCc2nc3ccccc3c(=O)n2N)c1	-5.61	0.82 µM [rising, partial curve]	–
Cc1ccccc1CN1C2=NCCN2c2ccccc21	10.8	0.116 µM [rising, full curve, poor fit]	–
Nc1ccccc1SCC(=O)Nc1nc(-c2ccccc2)cs1	-18.3	–	0.731 µM [falling, full curve, poor fit]
CCCc1nnc(NC(=O)CSc2ncn[nH]2)s1	-29.7	2.59 µM [falling, single point]	1.84 µM [falling, full curve, poor fit]
O=C(/C=C/c1c[nH]c2ccccc12)c1cccc2ccccc12	-54	8.2 µM [falling, partial curve]	29.1 µM [falling, single point]
CC(=O)NS(=O)(=O)c1ccc(N=c2ssc3c2-c2ccc(C)cc2NC3(C)C)cc1	5.31	4.61 µM [rising, full curve]	–
CC(C)(C)NC(=O)c1cccc(NC(=O)CSc2ccccc2)c1	-11.5	6.51 µM [falling, single point]	–

SMILES	cell number change [%]	AC50 [1]	AC50 [2]
Cc1cccn2c(=O)c3cc(C(=O)N4COCC4(C)C)sc3nc12	4.09	1.3 µM [rising, full curve]	0.092 µM [rising, partial curve, poor fit]
CCOc1ccc(N2CC(C(=O)Nc3ccc(S(=O)(=O)N4CCCCC4)cc3)CC2=O)cc1 (centres undefined)	-13	–	–
CCCNC(=O)c1onc(CSc2ccncc2)c1C(=O)NCCC	15.5	0.58 µM [rising, full curve, poor fit]	–
CN(C)C=Nc1c(Br)cc(Br)c2nonc12	-100	2.91 µM [falling, full curve]	5.8 µM [falling, full curve]
Cc1cccc(C)c1NC(=O)CNC(=O)CCCN1C(=O)c2cccc3cccc(c23)C1=O	-32.3	5.17 µM [falling, full curve, poor fit]	29.1 µM [falling, single point]
Cc1ccc(S(=O)(=O)N2CCC(C(=O)N3CCc4ccccc43)CC2)cc1	17.8	20.6 µM [rising, single point]	–
COCCCn1nnnc1SCC(=O)Nc1nc(C)c(C)s1	4.1	0.731 µM [rising, partial curve]	–
COc1ccc(Cl)cc1C(Nc1cccnc1)c1ccc2cccnc2c1O (centres undefined)	-8.24	20.6 µM [falling, single point]	–
CS(=O)(=O)Nc1cccc(C(=O)CC2(O)C(=O)Nc3ccc(Br)cc32)c1 (centres undefined)	24.4	3.66 µM [rising, full curve, poor fit]	–
Cc1ccc(C(=O)Nc2ccc(NC(=O)c3ccc(C)o3)cc2)o1	-19.4	29.1 µM [rising, single point]	–
COc1ccc(Cl)cc1NC(=O)C1CCCN(c2ncnc3c2nc2n3CCCCC2)C1 (centres undefined)	-15.3	29.1 µM [rising, single point]	–
CCc1cc2c(=O)c(-c3nc4ccccc4n3C)c(C)oc2cc1OC(C)=O	0.291	29.1 µM [falling, single point]	–
Cc1cccc(C)c1NC(=O)CNC(=O)Cn1nc(C)c(C)c(C#N)c1=O	31.3	–	16.4 µM [rising, single point]
C[C@@H](C(=O)Nc1ccc2ccccc2c1)[C@H]1C[C@]1(C)[C@H](NC(=O)c1cccnc1)c1ccccc1	6.79	1.46 µM [rising, full curve]	–
CCC1CCCCN1c1nc2c(C=O)c(C)nn2c2ccccc12 (centres undefined)	-24	18.4 µM [falling, single point]	–
O=C(NCc1ccc(Cl)cc1)C1CCCO1 (centres undefined)	17.9	–	–
CCOc1ccccc1NC(=O)c1ccc2c(c1)C(=O)N(CC)C2=O	–	0.517 µM [rising, single point]	–
Cc1nc(NC(=O)C2CC2)sc1C(=O)Nc1ccccc1	-13.8	11.6 µM [falling, partial curve]	–
O=C(NCCc1ccccc1)C(=O)NCC1CCCN1S(=O)(=O)c1ccccc1 (centres undefined)	–	–	0.116 µM [falling, full curve, poor fit]
CSc1oc(-c2ccccc2)nc1C(N)=O	38.7	11.6 µM [rising, partial curve]	20.6 µM [rising, single point]
COC1=CC(=O)CC(C)C12Oc1c(Cl)c(OC)cc(OC)c1C2=O (centres undefined)	19.5	0.0517 µM [falling, full curve, poor fit]	–

SMILES	cell number change [%]	AC50 [1]	AC50 [2]
O=C(Cc1ccc(S(=O)(=O)N2CCOCC2)s1)N(Cc1ccccc1)c1ccccc1	18.1	–	–
CC1=CCC2C(=O)N(c3cccc(C(=O)NC(C)c4ccccc4)c3)C(=O)C2C1 (centres undefined)	–	29.1 µM [rising, single point]	1.3 µM [rising, full curve]
Cc1cc(OCC(=O)Nn2cnnc2)c(C)cc1Br	-16.3	–	5.8 µM [falling, single point]
O=C(c1cccs1)N1CCN(c2nc3ccccc3s2)CC1	19.4	0.731 µM [rising, full curve]	0.184 µM [rising, full curve]
CCOC(=O)c1nn(-c2ccc(C)cc2)c(=O)cc1OCC(=O)Nc1ccc(OC)cc1	8.84	–	–
O=C(Cn1nc(-c2cccc([N+](=O)[O-])c2)c2ccccc2c1=O)Nc1cccnc1	63.4	2.91 µM [rising, partial curve]	2.06 µM [rising, full curve]
Cc1cccc(NC2=NC(C)(C)N=C(N)N2)c1	-17.5	6.51 µM [falling, single point]	0.092 µM [falling, full curve, poor fit]
Cn1nnnc1SCc1ccc(CSc2nnnn2C)cc1	38.4	0.116 µM [falling, full curve, poor fit]	–
COC(=O)c1c(C)[nH]c(C(C)=O)c1C	16.5	–	–
Cc1cc(Cl)c(S(=O)(=O)N2CCN(c3ccccn3)CC2)cc1OCC(N)=O	-1.69	0.184 µM [rising, full curve, poor fit]	–
O=Cc1cn(-c2ccccc2)nc1-c1ccccn1	3.48	–	–
COc1ccccc1N1CCN(S(=O)(=O)/C=C/c2ccccc2)CC1	4.8	–	–
CN(CC(=O)Nc1ccncc1)S(=O)(=O)c1ccc(Br)cc1	-0.799	0.58 µM [falling, single point]	–
Cc1occc1C(=O)Nc1cnn(CCCC(=O)O)c1	11.3	–	–
COc1cc2c3nnc(-c4ccc(F)cc4)c-3cn(Cc3ccc(F)cc3)c2cc1OC	-75.6	29.1 µM [falling, single point]	20.6 µM [falling, single point]
COc1ccc(N2CCN(C(=O)C3CCCN(S(=O)(=O)c4c(C)noc4C)C3)CC2)cc1 (centres undefined)	-14.8	6.51 µM [falling, partial curve, poor fit]	–
O=C1NC(=Nc2ccccc2Cl)S/C1=C\c1cccc([N+](=O)[O-])c1O	-32.6	–	2.59 µM [falling, full curve]
O=C(CSCCc1ccccn1)Nc1cccnc1	14.8	6.51 µM [falling, single point]	–
O=C(NCCC1=CCCCC1)c1ccc(Cl)c(S(=O)(=O)Nc2ccccc2)c1	–	6.51 µM [falling, single point]	–

No new results follow: an excerpt of the list.
SMILES	cell number change [%]	AC50 [1]	AC50 [2]
Cc1cc(OCC(=O)Nn2cnnc2)c(C)cc1Br	-16.3	–	5.8 µM [falling, single point]
O=C(c1cccs1)N1CCN(c2nc3ccccc3s2)CC1	19.4	0.731 µM [rising, full curve]	0.184 µM [rising, full curve]
CCOC(=O)c1nn(-c2ccc(C)cc2)c(=O)cc1OCC(=O)Nc1ccc(OC)cc1	8.84	–	–
O=C(Cn1nc(-c2cccc([N+](=O)[O-])c2)c2ccccc2c1=O)Nc1cccnc1	63.4	2.91 µM [rising, partial curve]	2.06 µM [rising, full curve]
Cc1cccc(NC2=NC(C)(C)N=C(N)N2)c1	-17.5	6.51 µM [falling, single point]	0.092 µM [falling, full curve, poor fit]
Cn1nnnc1SCc1ccc(CSc2nnnn2C)cc1	38.4	0.116 µM [falling, full curve, poor fit]	–
COC(=O)c1c(C)[nH]c(C(C)=O)c1C	16.5	–	–
Cc1cc(Cl)c(S(=O)(=O)N2CCN(c3ccccn3)CC2)cc1OCC(N)=O	-1.69	0.184 µM [rising, full curve, poor fit]	–
O=Cc1cn(-c2ccccc2)nc1-c1ccccn1	3.48	–	–
COc1ccccc1N1CCN(S(=O)(=O)/C=C/c2ccccc2)CC1	4.8	–	–
CN(CC(=O)Nc1ccncc1)S(=O)(=O)c1ccc(Br)cc1	-0.799	0.58 µM [falling, single point]	–
Cc1occc1C(=O)Nc1cnn(CCCC(=O)O)c1	11.3	–	–
COc1cc2c3nnc(-c4ccc(F)cc4)c-3cn(Cc3ccc(F)cc3)c2cc1OC	-75.6	29.1 µM [falling, single point]	20.6 µM [falling, single point]
COc1ccc(N2CCN(C(=O)C3CCCN(S(=O)(=O)c4c(C)noc4C)C3)CC2)cc1 (centres undefined)	-14.8	6.51 µM [falling, partial curve, poor fit]	–
O=C1NC(=Nc2ccccc2Cl)S/C1=C\c1cccc([N+](=O)[O-])c1O	-32.6	–	2.59 µM [falling, full curve]
O=C(CSCCc1ccccn1)Nc1cccnc1	14.8	6.51 µM [falling, single point]	–
